Assay [1] deals with Tyrosine-protein kinase Lck (Homo sapiens, UniProt P06239). The assay is described as follows: Inhibition of human wild type partial length LCK (R207 to P509 residues) expressed in bacteria by Eurofins DiscoverX method.
For assay [2], the target named is Vascular endothelial growth factor receptor 2 (Homo sapiens, UniProt P35968). The assay is described as follows: Inhibition of human wild type partial length VEGFR2 (R787 to P1253 residues) expressed in mammalian cells by Eurofins DiscoverX method. In kind it is cell-based.
The target in a further assay is Aurora kinase B (Homo sapiens, UniProt Q96GD4). Kind of assay: Inhibition of human Aurora B.
Assay [3] deals with Receptor tyrosine-protein kinase erbB-4 (Homo sapiens, UniProt Q15303). Kind of assay: Inhibition of human ErbB4.
The target in assay [4] is Platelet-derived growth factor receptor alpha (Homo sapiens, UniProt P16234). The assay is described as follows: Inhibition of human PDGFR alpha.
The target in assay [5] is Mast/stem cell growth factor receptor Kit (Homo sapiens, UniProt P10721). Kind of assay: Inhibition human Kit.
The target in assay [6] is Epidermal growth factor receptor (Homo sapiens, UniProt P00533). The assay is described as follows: Inhibition of human EGFR.
Assay [7] deals with Tyrosine-protein kinase Yes (Homo sapiens, UniProt P07947). Kind of assay: Inhibition of human YES.
For another assay, the target named is T1, Activin receptor type-1B (Homo sapiens, UniProt P36896).
T1 sequence (P36896 whole entry): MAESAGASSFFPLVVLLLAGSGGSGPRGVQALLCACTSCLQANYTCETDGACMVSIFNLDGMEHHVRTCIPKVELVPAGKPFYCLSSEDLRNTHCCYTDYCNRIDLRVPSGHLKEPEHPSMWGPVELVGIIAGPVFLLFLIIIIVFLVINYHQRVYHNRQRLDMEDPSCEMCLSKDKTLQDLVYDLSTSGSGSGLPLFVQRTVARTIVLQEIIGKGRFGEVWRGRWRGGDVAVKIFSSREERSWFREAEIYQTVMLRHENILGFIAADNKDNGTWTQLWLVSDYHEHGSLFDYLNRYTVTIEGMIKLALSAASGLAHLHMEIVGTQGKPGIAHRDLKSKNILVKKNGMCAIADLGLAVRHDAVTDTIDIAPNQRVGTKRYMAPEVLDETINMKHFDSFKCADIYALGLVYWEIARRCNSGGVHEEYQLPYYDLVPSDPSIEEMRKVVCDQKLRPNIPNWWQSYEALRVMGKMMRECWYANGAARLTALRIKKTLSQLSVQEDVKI
Kind of assay: Inhibition of human ALK4.

Chains of the proteins cited; added tags and fusions are not shown. Lines headed by an entry give the natural chain unless they say otherwise; changes in a name come on top.
UniProt P06239: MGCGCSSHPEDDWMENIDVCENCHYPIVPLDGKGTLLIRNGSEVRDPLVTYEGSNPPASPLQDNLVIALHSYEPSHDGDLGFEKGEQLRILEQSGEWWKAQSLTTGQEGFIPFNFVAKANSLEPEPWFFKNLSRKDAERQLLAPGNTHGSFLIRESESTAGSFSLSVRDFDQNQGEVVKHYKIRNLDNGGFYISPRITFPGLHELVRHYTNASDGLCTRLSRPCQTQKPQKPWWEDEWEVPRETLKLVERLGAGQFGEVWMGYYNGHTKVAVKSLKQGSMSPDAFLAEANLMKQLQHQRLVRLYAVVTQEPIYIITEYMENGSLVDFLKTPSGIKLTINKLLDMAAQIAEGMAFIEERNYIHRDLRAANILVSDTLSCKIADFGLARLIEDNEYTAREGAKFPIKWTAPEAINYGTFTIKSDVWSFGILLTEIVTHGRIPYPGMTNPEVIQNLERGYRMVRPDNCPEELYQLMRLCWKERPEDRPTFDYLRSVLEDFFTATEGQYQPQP
UniProt P35968, whole entry: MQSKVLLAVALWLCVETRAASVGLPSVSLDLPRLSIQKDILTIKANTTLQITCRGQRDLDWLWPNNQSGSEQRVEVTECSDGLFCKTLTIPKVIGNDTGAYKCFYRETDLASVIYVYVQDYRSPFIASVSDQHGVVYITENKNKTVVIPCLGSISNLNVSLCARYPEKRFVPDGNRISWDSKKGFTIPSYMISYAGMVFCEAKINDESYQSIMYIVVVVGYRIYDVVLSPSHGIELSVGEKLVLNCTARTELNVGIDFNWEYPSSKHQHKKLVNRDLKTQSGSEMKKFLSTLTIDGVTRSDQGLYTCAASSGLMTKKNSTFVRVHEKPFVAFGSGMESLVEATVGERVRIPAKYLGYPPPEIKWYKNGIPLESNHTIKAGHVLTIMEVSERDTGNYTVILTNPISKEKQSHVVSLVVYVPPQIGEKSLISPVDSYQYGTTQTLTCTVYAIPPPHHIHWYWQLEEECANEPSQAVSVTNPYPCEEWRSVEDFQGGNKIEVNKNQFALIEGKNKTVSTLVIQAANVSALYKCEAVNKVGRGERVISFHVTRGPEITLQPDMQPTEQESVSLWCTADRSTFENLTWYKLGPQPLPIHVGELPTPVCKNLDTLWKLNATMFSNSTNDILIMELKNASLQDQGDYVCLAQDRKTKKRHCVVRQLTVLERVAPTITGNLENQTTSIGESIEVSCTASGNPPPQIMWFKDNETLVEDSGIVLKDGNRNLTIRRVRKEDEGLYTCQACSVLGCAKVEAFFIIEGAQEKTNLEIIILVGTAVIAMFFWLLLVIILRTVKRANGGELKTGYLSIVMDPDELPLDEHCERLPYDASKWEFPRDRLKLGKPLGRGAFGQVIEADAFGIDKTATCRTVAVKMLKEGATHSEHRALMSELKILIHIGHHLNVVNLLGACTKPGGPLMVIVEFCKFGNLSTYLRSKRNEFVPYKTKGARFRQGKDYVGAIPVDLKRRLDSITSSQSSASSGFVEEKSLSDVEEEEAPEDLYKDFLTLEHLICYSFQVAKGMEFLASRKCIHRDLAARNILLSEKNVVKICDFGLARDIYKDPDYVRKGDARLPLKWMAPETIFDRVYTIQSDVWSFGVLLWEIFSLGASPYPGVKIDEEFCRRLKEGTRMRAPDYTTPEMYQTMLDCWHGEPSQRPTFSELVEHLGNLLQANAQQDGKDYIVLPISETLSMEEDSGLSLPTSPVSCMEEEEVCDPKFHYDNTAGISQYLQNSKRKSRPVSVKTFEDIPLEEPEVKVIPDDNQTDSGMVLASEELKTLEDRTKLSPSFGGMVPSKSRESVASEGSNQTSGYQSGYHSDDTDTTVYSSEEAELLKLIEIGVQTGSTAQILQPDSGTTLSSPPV
UniProt Q96GD4, whole entry: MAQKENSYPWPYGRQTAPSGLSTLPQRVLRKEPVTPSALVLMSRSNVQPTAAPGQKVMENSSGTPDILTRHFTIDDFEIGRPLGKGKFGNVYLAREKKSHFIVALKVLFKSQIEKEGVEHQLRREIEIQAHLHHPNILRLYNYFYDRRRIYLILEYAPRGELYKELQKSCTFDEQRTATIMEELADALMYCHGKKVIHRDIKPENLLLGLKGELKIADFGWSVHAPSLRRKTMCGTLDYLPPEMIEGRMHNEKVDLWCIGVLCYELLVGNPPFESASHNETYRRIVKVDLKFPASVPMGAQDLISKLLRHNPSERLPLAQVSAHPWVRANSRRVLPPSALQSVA
UniProt Q15303, whole entry: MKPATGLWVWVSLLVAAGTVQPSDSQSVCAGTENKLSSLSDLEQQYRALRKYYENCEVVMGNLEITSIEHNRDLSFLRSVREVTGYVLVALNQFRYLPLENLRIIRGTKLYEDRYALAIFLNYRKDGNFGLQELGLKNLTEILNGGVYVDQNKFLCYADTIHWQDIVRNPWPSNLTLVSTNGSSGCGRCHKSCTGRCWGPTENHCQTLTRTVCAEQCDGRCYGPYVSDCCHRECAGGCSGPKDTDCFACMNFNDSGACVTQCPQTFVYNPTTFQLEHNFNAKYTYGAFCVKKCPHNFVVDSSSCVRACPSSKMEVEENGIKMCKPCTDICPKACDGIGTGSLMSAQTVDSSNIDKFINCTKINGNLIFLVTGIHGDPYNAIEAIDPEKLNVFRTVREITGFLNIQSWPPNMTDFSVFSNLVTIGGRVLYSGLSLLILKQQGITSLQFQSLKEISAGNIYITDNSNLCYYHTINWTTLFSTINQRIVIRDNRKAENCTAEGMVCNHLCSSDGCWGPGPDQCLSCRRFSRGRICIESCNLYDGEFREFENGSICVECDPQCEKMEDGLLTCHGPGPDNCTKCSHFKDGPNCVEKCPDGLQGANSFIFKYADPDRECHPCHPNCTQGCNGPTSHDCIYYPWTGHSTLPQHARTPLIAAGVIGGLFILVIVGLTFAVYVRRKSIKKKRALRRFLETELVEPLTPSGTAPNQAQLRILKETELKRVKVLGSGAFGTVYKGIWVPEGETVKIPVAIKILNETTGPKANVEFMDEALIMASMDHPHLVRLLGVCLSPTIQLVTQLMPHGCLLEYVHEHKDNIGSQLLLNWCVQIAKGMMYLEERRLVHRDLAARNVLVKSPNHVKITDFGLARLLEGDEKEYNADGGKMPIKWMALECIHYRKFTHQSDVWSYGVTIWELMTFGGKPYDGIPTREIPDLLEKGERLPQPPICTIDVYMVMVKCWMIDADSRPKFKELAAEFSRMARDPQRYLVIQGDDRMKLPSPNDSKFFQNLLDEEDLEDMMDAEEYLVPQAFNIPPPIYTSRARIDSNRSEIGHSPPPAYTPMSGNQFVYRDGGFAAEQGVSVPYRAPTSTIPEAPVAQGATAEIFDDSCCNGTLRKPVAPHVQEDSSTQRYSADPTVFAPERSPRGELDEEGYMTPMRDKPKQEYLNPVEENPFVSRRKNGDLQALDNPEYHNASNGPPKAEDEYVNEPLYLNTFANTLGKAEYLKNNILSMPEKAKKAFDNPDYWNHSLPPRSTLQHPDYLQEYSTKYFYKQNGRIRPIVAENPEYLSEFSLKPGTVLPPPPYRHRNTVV
UniProt P16234: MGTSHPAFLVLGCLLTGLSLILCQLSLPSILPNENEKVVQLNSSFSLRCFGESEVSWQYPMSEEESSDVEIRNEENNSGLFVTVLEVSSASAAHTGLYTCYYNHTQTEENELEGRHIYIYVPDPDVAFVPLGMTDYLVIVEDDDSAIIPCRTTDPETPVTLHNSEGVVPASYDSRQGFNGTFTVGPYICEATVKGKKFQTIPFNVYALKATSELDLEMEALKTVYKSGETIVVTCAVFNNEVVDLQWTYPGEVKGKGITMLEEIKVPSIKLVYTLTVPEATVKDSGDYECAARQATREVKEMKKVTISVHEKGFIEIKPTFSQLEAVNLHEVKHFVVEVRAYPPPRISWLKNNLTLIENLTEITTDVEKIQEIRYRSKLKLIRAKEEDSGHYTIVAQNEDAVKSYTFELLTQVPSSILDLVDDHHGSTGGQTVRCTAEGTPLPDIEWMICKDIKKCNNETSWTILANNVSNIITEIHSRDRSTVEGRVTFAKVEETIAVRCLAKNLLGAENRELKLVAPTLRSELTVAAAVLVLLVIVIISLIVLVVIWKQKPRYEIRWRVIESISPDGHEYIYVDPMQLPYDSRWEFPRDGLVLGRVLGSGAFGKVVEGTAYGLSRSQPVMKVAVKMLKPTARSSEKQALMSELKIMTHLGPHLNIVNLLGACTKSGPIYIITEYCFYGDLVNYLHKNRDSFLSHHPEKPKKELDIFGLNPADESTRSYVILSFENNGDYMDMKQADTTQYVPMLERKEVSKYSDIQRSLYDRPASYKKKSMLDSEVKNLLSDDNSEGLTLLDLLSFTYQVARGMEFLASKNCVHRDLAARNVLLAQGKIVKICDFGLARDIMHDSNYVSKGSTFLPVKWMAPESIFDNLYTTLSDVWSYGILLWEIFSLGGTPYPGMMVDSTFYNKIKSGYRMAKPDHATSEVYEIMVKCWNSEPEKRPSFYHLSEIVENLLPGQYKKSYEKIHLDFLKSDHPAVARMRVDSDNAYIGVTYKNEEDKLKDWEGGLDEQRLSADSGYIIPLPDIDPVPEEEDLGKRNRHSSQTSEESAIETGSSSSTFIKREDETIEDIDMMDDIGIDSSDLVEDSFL
UniProt P10721, whole entry: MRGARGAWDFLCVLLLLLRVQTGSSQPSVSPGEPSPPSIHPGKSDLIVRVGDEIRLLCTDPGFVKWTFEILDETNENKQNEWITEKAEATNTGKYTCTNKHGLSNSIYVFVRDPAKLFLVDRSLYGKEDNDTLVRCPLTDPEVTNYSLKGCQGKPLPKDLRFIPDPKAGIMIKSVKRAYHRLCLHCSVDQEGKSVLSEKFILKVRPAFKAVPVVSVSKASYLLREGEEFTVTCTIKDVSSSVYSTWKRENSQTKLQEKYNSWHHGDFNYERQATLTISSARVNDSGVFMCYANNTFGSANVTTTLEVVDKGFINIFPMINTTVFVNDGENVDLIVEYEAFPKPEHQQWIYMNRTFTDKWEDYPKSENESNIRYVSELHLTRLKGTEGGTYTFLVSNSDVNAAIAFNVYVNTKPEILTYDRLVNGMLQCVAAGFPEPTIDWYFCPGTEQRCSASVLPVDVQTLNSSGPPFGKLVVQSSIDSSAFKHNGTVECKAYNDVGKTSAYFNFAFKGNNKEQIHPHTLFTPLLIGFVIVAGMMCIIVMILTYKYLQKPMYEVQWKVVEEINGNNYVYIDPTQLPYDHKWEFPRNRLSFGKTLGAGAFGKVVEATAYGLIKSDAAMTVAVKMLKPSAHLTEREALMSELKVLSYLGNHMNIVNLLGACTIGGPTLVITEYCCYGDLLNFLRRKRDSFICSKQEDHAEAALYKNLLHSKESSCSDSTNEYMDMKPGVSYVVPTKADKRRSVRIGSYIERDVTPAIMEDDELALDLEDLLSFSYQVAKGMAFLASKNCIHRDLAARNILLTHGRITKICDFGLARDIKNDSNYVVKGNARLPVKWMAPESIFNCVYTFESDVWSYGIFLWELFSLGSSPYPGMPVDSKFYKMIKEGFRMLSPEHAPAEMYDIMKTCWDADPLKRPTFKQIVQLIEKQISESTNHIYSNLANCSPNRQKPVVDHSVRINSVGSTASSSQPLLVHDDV
UniProt P07947, whole entry: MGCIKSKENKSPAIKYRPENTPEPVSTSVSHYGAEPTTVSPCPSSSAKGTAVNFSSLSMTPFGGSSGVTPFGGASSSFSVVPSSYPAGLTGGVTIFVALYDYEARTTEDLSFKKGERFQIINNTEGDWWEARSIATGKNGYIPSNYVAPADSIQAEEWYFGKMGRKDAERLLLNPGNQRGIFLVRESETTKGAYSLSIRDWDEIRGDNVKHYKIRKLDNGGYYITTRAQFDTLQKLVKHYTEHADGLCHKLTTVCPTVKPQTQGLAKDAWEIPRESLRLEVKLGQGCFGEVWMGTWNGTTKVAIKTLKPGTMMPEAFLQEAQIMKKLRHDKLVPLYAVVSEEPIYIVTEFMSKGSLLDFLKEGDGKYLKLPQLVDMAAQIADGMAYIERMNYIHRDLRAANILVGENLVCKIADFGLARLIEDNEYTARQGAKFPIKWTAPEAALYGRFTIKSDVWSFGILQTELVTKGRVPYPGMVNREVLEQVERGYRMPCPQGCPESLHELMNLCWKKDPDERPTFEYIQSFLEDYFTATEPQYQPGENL

Molecules are shown by their SMILES.

One may read the IC50 as the concentration at which inhibition is half-maximal.

`CC(C)n1cnc(-c2ccc(F)cc2)c1-c1nc(C(=O)Nc2ccc(N3CCN(C)CC3)cc2)c[nH]1`: the half-inhibitory concentration (IC50) is 0.31 µM in assay [1]; 3.5 µM in assay [2]; greater than 10 µM against Aurora kinase B; greater than 10 µM in [3]; less than 0.1 µM in [4]; less than 0.1 µM in [5]. In addition, the 50% inhibitory concentration (IC50) (in [6]; in assay [7]; on Activin receptor type-1B) was less than 0.1 µM each time.

The record behind these values is ChEMBL document CHEMBL6127114, “Discovery of Bis-imidazolecarboxamide Derivatives as Novel, Potent, and Selective TNIK Inhibitors for the Treatment of Idiopathic Pulmonary Fibrosis” (J Med Chem, 2024).
